Assay results as given in patent US20090053138.

Sequences of proteins named here, by UniProt entry; tags and fusion partners are left off. Residues count along the entry.
UniProt P01127, 82-190: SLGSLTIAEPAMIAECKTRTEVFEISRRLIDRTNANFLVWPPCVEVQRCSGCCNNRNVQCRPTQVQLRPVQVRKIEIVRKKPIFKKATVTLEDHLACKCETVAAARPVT

Experiments:
PDGF-BB (Homo sapiens) [1] = target: PDGF-BB (Homo sapiens) (UniProt P01127); assay: activity in cells; details: 3'-inverted dT, purified recombinant protein, protein details: PeproTech; for functional effect of the aptamer: PS in 5' CpG part and at 3' end, blocks PDGF-BB (R&D Systems) driven ERK phosphorylation in 3T3, variant of ARC124, dose not given here; for IC50: 3T3 proliferation
PDGF-BB (Homo sapiens) [2] = target: PDGF-BB (Homo sapiens) (UniProt P01127); assay: competition with a labelled probe; details: HEG spacers, purified recombinant protein, protein details: PeproTech, variant of ARC126
[3] = all deoxy, PEG-6 spacers, single-stranded DNA, variant of ARC126

## AACGTTCGAGCAGGCTACGGCACGTAGAGCATCACCATGATCCTGC [CpGARC124short]
PDGF-BB (Homo sapiens) [1]; single-stranded DNA
  functional effect of the aptamer: active

## ACAGGCTACGCGTAGAGCATCATGATCCTGT [ARC335]
PDGF-BB (Homo sapiens) [1]; [3]
  IC50: 90 nM

## ACAGGCTACGCGTAGAGCATCATGATCCUGU [ARC339]
PDGF-BB (Homo sapiens) [1]; 2'-OMe at s3 C5 C6 U7 G8 U9, rest deoxy, PEG-6 spacers, variant of ARC126
  IC50: 767 nM

## CACAGGCTACGCGTAGAGCATCATGATCCTGTG [ARC336]
PDGF-BB (Homo sapiens) [1]; [3]
  IC50: 197 nM

## CACAGGCTACGCGTAGAGCATCATGATCCTGTG [ARC363]
PDGF-BB (Homo sapiens) [1]; 2'-OMe at s1 G11, s2 G5 G7 A12, rest deoxy, PEG-6 spacers, variant of ARC126
  IC50: 3.92 nM

## CACAGGCTACGCGTAGAGCATCATGATCCUGUG [ARC340]
PDGF-BB (Homo sapiens) [1]; 2'-OMe at s3 C5 C6 U7 G8 U9 G10, rest deoxy, PEG-6 spacers, variant of ARC126
  IC50: 867 nM

## CACAGGCTACGCGTAGAGCATCATGATCCUGUG [ARC364]
PDGF-BB (Homo sapiens) [1]; 2'-OMe at s3 C6 U7 G8 U9 G10, rest deoxy, PEG-6 spacers, variant of ARC126
  IC50: 1720 nM

## CACAGGCUACGCGTAGAGCAUCATGATCCUGUG [ARC366]
PDGF-BB (Homo sapiens) [1]; 2'-OMe at s1 U8 C10 G11, s2 G5 G7 U10 C11 A12, s3 C6 U7 G8 U9 G10, rest deoxy, PEG-6 spacers, variant of ARC126
  IC50: 5.54 nM

## CAGCGUACGCGTACCGATUCATGAAGCUG [ARC128]
PDGF-BB (Homo sapiens) [2]; 2'-F/2'-OMe/deoxy as ARC126 type, scrambled inactive, no effect in 3T3 assay
  binding result: no binding

## CAGGCTACGCGTAGAGCATCATGATCCTG [ARC276 (listed as 275 in Table 2)]
PDGF-BB (Homo sapiens) [1]; 2'-OMe at s1 G9, s2 G5 G7 A12, s3 G8, rest deoxy, PEG-6 spacers, variant of ARC126
  IC50: 18 nM

## CAGGCTACGCGTAGAGCATCATGATCCTG [ARC299]
PDGF-BB (Homo sapiens) [1]; [3]
  IC50: 1000 nM

## CAGGCTACGCGTAGAGCATCATGATCCTG [ARC338]
PDGF-BB (Homo sapiens) [1]; 2'-OMe at s1 C1 A2 G3 G4, rest deoxy, PEG-6 spacers, variant of ARC126
  IC50: 1000 nM

## CAGGCTACGCGTAGAGCATCATGATCCUG [ARC337]
PDGF-BB (Homo sapiens) [1]; 2'-OMe at s3 C5 C6 U7 G8, rest deoxy, PEG-6 spacers, variant of ARC126
  IC50: 1000 nM

## CAGGCTACGCGTAGAGCATCATGATCCUG [ARC341]
PDGF-BB (Homo sapiens) [1]; 2'-OMe at s1 G9, s2 G5 G7 A12, s3 C5 C6 U7 G8, rest deoxy, PEG-6 spacers, variant of ARC126
  IC50: 1000 nM

## CAGGCTACGCGTAGAGCATCATGATCCUG [ARC342]
PDGF-BB (Homo sapiens) [1]; 2'-OMe at s1 C8 G9, s2 G5 G7 A12, s3 C5 C6 U7 G8, rest deoxy, PEG-6 spacers, variant of ARC126
  IC50: 1000 nM

## CAGGCTACGCGTAGAGCATCATGATCCUG [ARC345]
PDGF-BB (Homo sapiens) [1]; 2'-OMe at s1 G9, s2 G5 G7 C11 A12, s3 C5 C6 U7 G8, rest deoxy, PEG-6 spacers, variant of ARC126
  IC50: 13 nM

## CAGGCTACGCGTAGAGCATCATGATCCUG [ARC362]
PDGF-BB (Homo sapiens) [1]; 2'-OMe at s1 G9, s2 G5 G7 A12, s3 C6 U7 G8, rest deoxy, PEG-6 spacers, variant of ARC126
  IC50: 315 nM

## CAGGCTACGCGTAGAGCAUCATGATCCUG [ARC346]
PDGF-BB (Homo sapiens) [1]; 2'-OMe at s1 G9, s2 G5 G7 U10 A12, s3 C5 C6 U7 G8, rest deoxy, PEG-6 spacers, variant of ARC126
  IC50: 15 nM

## CAGGCTACGCGTAGAGCAUCATGATCCUG [ARC404]
PDGF-BB (Homo sapiens) [1]; 2'-OMe at s1 C8 G9, s2 G5 G7 U10 C11 A12, s3 C5 C6 U7 G8, rest deoxy, PEG-6 spacers, variant of ARC126
  IC50: 3.89 nM

## CAGGCUACGCGTAGAGCATCATGATCCUG [ARC344]
PDGF-BB (Homo sapiens) [1]; 2'-OMe at s1 U6 G9, s2 G5 G7 A12, s3 C5 C6 U7 G8, rest deoxy, PEG-6 spacers, variant of ARC126
  IC50: 200 nM

## CAGGCUACGCGTAGAGCATCATGATCCUG [ARC406]
PDGF-BB (Homo sapiens) [1]; 2'-OMe at s1 U6 C8 G9, s2 G5 G7 C11 A12, s3 C5 C6 U7 G8, rest deoxy, PEG-6 spacers, variant of ARC126
  IC50: 17.1 nM

## CAGGCUACGCGTAGAGCAUCATGATCCTG [ARC410]
PDGF-BB (Homo sapiens) [1]; 2'-OMe at s1 U6 C8 G9, s2 G5 G7 U10 C11 A12, s3 C5 C6 G8, rest deoxy, PEG-6 spacers, variant of ARC126
  IC50: 6.79 nM

## CAGGCUACGCGTAGAGCAUCATGATCCUG [ARC127]
PDGF-BB (Homo sapiens) [1]; as ARC126 plus 5'-40 kDa PEG, HEG spacers, Elk luciferase IC50 about 2 nM, variant of ARC126
  IC50: 3.45 nM

## CAGGCUACGCGTAGAGCAUCATGATCCUG [ARC277]
PDGF-BB (Homo sapiens) [1]; 2'-OMe at s1 U6 C8 G9, s2 G5 G7 U10 C11 A12, s3 C5 C6 U7 G8, rest deoxy, PEG-6 spacers, variant of ARC126
  IC50: 8.67 nM

## CAGGCUACGCGTAGAGCAUCATGATCCUG [ARC308]
PDGF-BB (Homo sapiens) [2]; as ARC126 plus 5'-30 kDa PEG, 3'-inverted dT, less than two-fold effect vs unPEGylated ARC126
  binding result: binds

## CAGGCUACGCGTAGAGCAUCATGATCCUG [ARC365]
PDGF-BB (Homo sapiens) [1]; as ARC277 plus 5'-NH2, PEG-6 spacers, variant of ARC277
  IC50: 6.79 nM

## CAGGCUACGCGTAGAGCAUCATGATCCUG [ARC405]
PDGF-BB (Homo sapiens) [1]; 2'-OMe at s1 U6 G9, s2 G5 G7 U10 C11 A12, s3 C5 C6 U7 G8, rest deoxy, PEG-6 spacers, variant of ARC126
  IC50: 8.65 nM

## CAGGCUACGCGTAGAGCAUCATGATCCUG [ARC407]
PDGF-BB (Homo sapiens) [1]; 2'-OMe at s1 U6 C8 G9, s2 G5 G7 U10 A12, s3 C5 C6 U7 G8, rest deoxy, PEG-6 spacers, variant of ARC126
  IC50: 16.4 nM

## CAGGCUACGCGTAGAGCAUCATGATCCUG [ARC408]
PDGF-BB (Homo sapiens) [1]; 2'-OMe at s1 U6 C8 G9, s2 G5 G7 U10 C11 A12, s3 C6 U7 G8, rest deoxy, PEG-6 spacers, variant of ARC126
  IC50: 28.4 nM

## CAGGCUACGCGTAGAGCAUCATGATCCUG [ARC409]
PDGF-BB (Homo sapiens) [1]; 2'-OMe at s1 U6 C8 G9, s2 G5 G7 U10 C11 A12, s3 C5 U7 G8, rest deoxy, PEG-6 spacers, variant of ARC126
  IC50: 7.31 nM

## CAGGCUACGCGUAGAGCAUCAUGAUCCUG [ARC300]
PDGF-BB (Homo sapiens) [1]; all 2'-OMe, PEG-6 spacers, no affinity listed, synthetic backbone, variant of ARC126
  IC50: 900 nM

## CCCAGGCTACGCGTAGAGCAUCATGATCCTGGG [ARC513]
PDGF-BB (Homo sapiens) [1]; 2'-OMe at s1 G11, s2 G5 G7 U10 C11 A12, s3 C5 G8 G9 G10, rest deoxy, PEG-6 spacers, 3.7 in Table 3A/3B, 3.2 in Table 3C, variant of ARC126
  IC50: 2.07 nM

## CCCAGGCTACGCGTAGAGCAUCATGATCCTGGG [ARC514]
PDGF-BB (Homo sapiens) [1]; 2'-OMe at s1 G11, s2 G5 G7 U10 C11 A12, s3 G8 G9 G10, rest deoxy, PEG-6 spacers, variant of ARC126
  IC50: 3.16 nM

## CCCAGGCTACGCGTAGAGCAUCATGATCCTGGG [ARC515]
PDGF-BB (Homo sapiens) [1]; 2'-OMe at s1 G11, s2 G5 G7 U10 C11 A12, rest deoxy, PEG-6 spacers, variant of ARC126
  IC50: 4.66 nM

## CCCAGGCTACGCGTAGAGCAUCATGATCCTGGG [ARC516]
PDGF-BB (Homo sapiens) [1]; 2'-OMe at s1 G11, s2 G5 G7 U10 C11 A12, s3 C5, rest deoxy, PEG-6 spacers, variant of ARC126
  IC50: 3.05 nM

## CCCAGGCTACGCGTAGAGCAUCAUUUTGATCCTGGG [ARC1014]
PDGF-BB (Homo sapiens) [1]; 5'-NH2, 2'-OMe as ARC513, second PEG spacer replaced by mUmUmU, first PEG spacer kept, variant of ARC513
  IC50: 10.6 nM

## CCCAGGCTACGCGTAGAGCAUCAUUUUTGATCCTGGG [ARC1015]
PDGF-BB (Homo sapiens) [1]; 5'-NH2, 2'-OMe as ARC513, second PEG spacer replaced by mUmUmUmU, first PEG spacer kept, variant of ARC513
  IC50: 10.1 nM

## CCCAGGCTACGUUUCGTAGAGCAUCATGATCCTGGG [ARC1012]
PDGF-BB (Homo sapiens) [1]; 5'-NH2, 2'-OMe as ARC513, first PEG spacer replaced by mUmUmU, second PEG spacer kept, variant of ARC513
  IC50: 2.79 nM

## CCCAGGCTACGUUUCGTAGAGCAUCAUUUTGATCCTGGG [ARC1016]
PDGF-BB (Homo sapiens) [1]; 5'-NH2, 2'-OMe as ARC513, both PEG spacers replaced by mUmUmU, variant of ARC513
  IC50: 8.5 nM

## CCCAGGCTACGUUUUCGTAGAGCAUCATGATCCTGGG [ARC1013]
PDGF-BB (Homo sapiens) [1]; 5'-NH2, 2'-OMe as ARC513, first PEG spacer replaced by mUmUmUmU, second PEG spacer kept, variant of ARC513
  IC50: 15.4 nM

## CCCAGGCTACGUUUUCGTAGAGCAUCAUUUUTGATCCTGGG [ARC1017]
PDGF-BB (Homo sapiens) [1]; 5'-NH2, 2'-OMe as ARC513, both PEG spacers replaced by mUmUmUmU, variant of ARC513
  IC50: 14.3 nM

## GTGAACGTTCGAGCAGGCTACGGCACGTAGAGCATCACCATGATCCTGC [LongCpGARC124]
PDGF-BB (Homo sapiens) [1]; single-stranded DNA
  functional effect of the aptamer: active

The exact form of at least one protein or probe is not confirmed. For part of these data: A negative result means that nothing was seen under these conditions.
